Laboratory results reported in patent US20250352539A1, “COMBINATION THERAPY FOR TREATING CANCER” (AstraZeneca AB, priority 2022, published 2025).
The name of at least one read-out is uncertain.

System: NCI-H1573
Assay: 10-day Cell Titre Glo combination screen
Type: cell-based
Settings: NCI-H1573 lung; monotherapy; read-out: mono AC50
Excerpt: The Highest Single Agent (HSA) model is used to determine a combination's synergy score (and is based simply on the intuition that if a combination's effect exceeds the effect level of each of its constituents, there must be some combination interaction). Mathematically, the HSA model describes simple superposition of the single agent curves:
where CX,Y are the concentrations of the X and Y compound, and IX and IY are inhibitions of the single agents at CX,Y. It is also useful to calculate a volume score (HSA Volume) between the data and the HSA surface to characterise the overall strength of combination effects. […]
Potency shifting can also be scored using combination index (CI). For a chosen iso-effect level (ICut), CI is calculated as: […]
where (CX/ECX) for a particular data point is the ratio of the X compound's measured concentration to its effective concentration at the chosen effect level. […] The CI error (σCI) is calculated using standard error propagation through the CI calculation based on the isobologram errors.
This combination screen was a 10-day assay using Cell Titre Glo as the readout for viability.
The assay was performed in 384 well plates, with 1 cell line and 4 drug-drug combinations per plate dosed in a 6×6 matrix. A day zero reading was measured to determine growth inhibition. […]

C[C@@H]1COCCN1c1cc(C2([S@](C)(=N)=O)CC2)nc(-c2ccnc3[nH]ccc23)n1 [AZD6738, 4-{4-[(3R)-3-Methylmorpholin-4-yl]-6-[1-((R)—S-methylsulfonimidoyl)cyclopropyl]pyrimidin-2-yl}-1H-pyrrolo[2,3-b]-pyridine]
AC50: 863 nM
